Reference: PubChem BioAssay AID1259308 (NCATS, 2017)

Test: 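Genes whose loss raises luciferase production in HEK293 cells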 (primary screen)
System: human HEK293 embryonic kidney cells stably expressing firefly luciferase (HEK-CMV-Luc2-Hygro)
Knock-down reagent: single siRNA against human genes, 0.8 pmol siRNA per well
Duration: 72 h
Read-out: 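Reporter luminescence and viable-cell signal on separate replicate plates, given as percent of non-targeting control and median/MAD z-scores, plus per-cell luciferase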
Reading the numbers: total luciferase, z-score and total luciferase, % of control: higher = more reporter protein produced; luciferase per cell, z-score: higher = more reporter output per viable cell; viable cells, % of control: higher = more viable cells
Call rule: 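An siRNA counts as active if its total luciferase robust z-score exceeds 3; genes with two or more such siRNAs out of three were retested with fresh siRNAs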
Meaning of the calls: active = raised luciferase; inactive = no rise
This is one part, drawn at random, of about 59,000 reagents tested. About 1,510 of all reagents (2.6%) count as active. 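Calls use total luciferase alone and ignore viability, so some active siRNAs may act by altering cell number.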 The numbers tell different reagents against one gene apart.

Gene	reagent	total luciferase, z-score	total luciferase, % of control	luciferase per cell, z-score	viable cells, % of control	call
CNOT3	1	3.99	161	3.61	69.6	active
CNOT3	2	-2.03	41.5	-2.01	78.7	inactive
CNOT3	3	0.619	94.2	0.695	87.7	inactive
TUBB6	1	-0.245	77	-0.283	92.7	inactive
TUBB6	2	0.983	101	0.417	102	inactive
TUBB6	3	-0.324	75.4	0.521	73.5	inactive
KASH5	1	-1.42	53.6	-1.63	92.2	inactive
KASH5	2	-1.81	45.9	-1.35	73.2	inactive
KASH5	3	-2.68	28.6	-1.71	50.3	inactive
RNF149	1	0.155	85	-0.142	98.6	inactive
RNF149	2	-0.737	67.2	-0.917	95.6	inactive
RNF149	3	0.468	91.2	0.0581	100	inactive
CLEC2D	1	0.0817	83.5	-0.43	105	inactive
CLEC2D	2	-1.07	60.5	-1.67	105	inactive
CLEC2D	3	0.289	87.6	1.97	58.2	inactive
XK	1	-0.346	75	0.0125	83.5	inactive
XK	2	-0.236	77.2	-0.318	93.8	inactive
XK	3	0.223	86.3	-0.666	115	inactive
STRA8	1	1.59	114	1.41	87.4	inactive
STRA8	2	1.08	103	0.822	93	inactive
STRA8	3	0.327	88.4	0.565	85.1	inactive
OR51T1	1	-1.18	58.4	-0.64	77.2	inactive
OR51T1	2	-3.12	19.7	-1.72	34.7	inactive
OR51T1	3	0.967	101	0.355	103	inactive
MARS2	1	-2.45	33.3	-2.73	76.2	inactive
MARS2	2	-0.083	80.2	0.811	72.4	inactive
MARS2	3	0.704	95.9	0.384	96.8	inactive
KIF18A	1	0.0787	83.5	-0.0331	94.1	inactive
KIF18A	2	-0.166	78.6	-0.127	90.8	inactive
KIF18A	3	-0.505	71.8	-0.937	103	inactive
KLHL15	1	-0.0559	80.8	0.408	81.1	inactive
KLHL15	2	-0.388	74.2	-0.227	88	inactive
KLHL15	3	-0.552	70.9	0.184	75.5	inactive
MBTPS2	1	-0.0808	80.3	-0.875	113	inactive
MBTPS2	2	0.126	84.4	-0.297	102	inactive
MBTPS2	3	0.436	90.5	0.509	88.5	inactive
NONO	1	-1.75	47.2	-0.748	64.2	inactive
NONO	2	-0.126	79.4	-0.178	93	inactive
NONO	3	1.77	117	2.16	74.1	inactive

An excerpt from above, limited to “total luciferase, z-score”.
CNOT3 #2	-2.03
CNOT3 #3	0.619
TUBB6 #1	-0.245
TUBB6 #2	0.983
TUBB6 #3	-0.324
